Results as given in PubChem BioAssay AID256 (DTP/NCI, 2004).
The list does not hold the whole screen: it is rich in T/C values a quarter to a half above the control, in often repeated tests (any T/C) and in doses without a T/C. Other doses and runs of a compound stand elsewhere. T/C gives the treated animals as a percentage of the vehicle group. Some doses have a count of surviving animals in place of a T/C: the source holds a T/C of zero for them, seemingly a mark for toxic or unscored doses. Some doses without a T/C left all or most animals alive at the check, yet need not have been tolerated: the source hardly ever lists a survival T/C far under the control, and the zero likely stands for such cases as well. Counts of survivors are from the toxicity check (mostly the fifth day) where no day follows; animals may have died later. Schedule codes are those of the source, taken here to give the interval after Q, in days (D) or hours (H), and the number of doses after X. Some molecules as drawn cover several salts, stereoisomers or complexes of the source; a dose is that of the sample tested. Some doses were run more than once; the results are listed from low to high. For survival time, this PubChem deposit counts one and a half times the control or more as active, and values a quarter to a half above the control carry no call in these data; other NCI protocols may use other cut-offs. Some T/C values are followed by the survivors on the day toxicity was checked, most often the fifth; where none is given, no animal had died by that day. Marks such as (2×) count equal records among those shown.

System: CD2F1 mice, L1210 leukemia ip, survival T/C
Assay: NCI In Vivo Anticancer Drug Screen. Data for tumor model L1210 Leukemia (intraperitoneal) in CD2F1 (CDF1) mice
Conditions: higher T/C = longer survival
Outline: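 Activity against a transplanted murine tumor was judged by comparing the compound group with a vehicle group. The outcome in the treated animals was divided by that in the controls.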

[1] = T/C endpoint: mean survival time, dose: 75.0 mg/kg/injection, schedule: Q01DX009 (ip), vehicle: alkali diluted with saline
[2] = T/C endpoint: median survival time, dose: 1000.0 mg/kg/injection, schedule: Q04DX003 (ip), vehicle: water

Structure (SMILES): NC(C/[N+]([O-])=N/O)C(=O)O (configuration not stated)
- T/C (T/C endpoint: mean survival time, dose: 16.0 mg/kg/injection, schedule: Q01DX009 (ip), vehicle: saline): 125 % of control
- T/C (T/C endpoint: mean survival time, dose: 18.75 mg/kg/injection, schedule: Q01DX009 (ip), vehicle: alkali diluted with saline): 135 % of control
- T/C (T/C endpoint: mean survival time, dose: 29.6 mg/kg/injection, schedule: Q01DX010 (ip), vehicle: alkali diluted with saline): 142 % of control
- T/C (T/C endpoint: mean survival time, dose: 32.0 mg/kg/injection, schedule: Q03HX024 (ip), vehicle: saline): 130 % of control
- T/C (T/C endpoint: mean survival time, dose: 37.5 mg/kg/injection, schedule: Q01DX009 (ip), vehicle: alkali diluted with saline): 134 % of control
- T/C (T/C endpoint: mean survival time, dose: 44.4 mg/kg/injection, schedule: Q01DX010 (ip), vehicle: alkali diluted with saline): 144 % of control
- T/C (T/C endpoint: mean survival time, dose: 50.0 mg/kg/injection, schedule: Q04DX003 (ip), vehicle: alkali diluted with saline): 101, 106 (2×), 116, 128 % of control
- T/C (T/C endpoint: mean survival time, dose: 60.0 mg/kg/injection, schedule: Q01DX005 (ip), vehicle: alkali diluted with saline): 129 % of control
- T/C (T/C endpoint: mean survival time, dose: 64.0 mg/kg/injection, schedule: Q01DX009 (ip), vehicle: saline): 129 % of control
- T/C (T/C endpoint: mean survival time, dose: 64.0 mg/kg/injection, schedule: Q03HX024 (ip), vehicle: saline): 144 % of control
- T/C (T/C endpoint: mean survival time, dose: 66.7 mg/kg/injection, schedule: Q01DX010 (ip), vehicle: alkali diluted with saline): 149 % of control
- T/C [1]: 125 [7 of 8 alive] and 129 % of control
- survivor count [1]: 8 of 8
- T/C (T/C endpoint: mean survival time, dose: 80.0 mg/kg/injection, schedule: Q01DX009 (ip), vehicle: alkali diluted with saline): 130 % of control
- T/C (T/C endpoint: mean survival time, dose: 100.0 mg/kg/injection, schedule: Q01DX010 (ip), vehicle: alkali diluted with saline): 126 % of control
- T/C (T/C endpoint: mean survival time, dose: 100.0 mg/kg/injection, schedule: Q04DX003 (ip), vehicle: alkali diluted with saline): 108, 112, 124, 132, 135, 136 % of control
- T/C (T/C endpoint: mean survival time, dose: 120.0 mg/kg/injection, schedule: Q01DX005 (ip), vehicle: alkali diluted with saline): 145 % of control
- T/C (T/C endpoint: mean survival time, dose: 128.0 mg/kg/injection, schedule: Q03HX008 (ip), vehicle: saline): 131 % of control [9 of 10 alive]
- T/C (T/C endpoint: mean survival time, dose: 128.0 mg/kg/injection, schedule: Q03HX016 (ip), vehicle: saline): 138 % of control
- T/C (T/C endpoint: mean survival time, dose: 128.0 mg/kg/injection, schedule: Q03HX024 (ip), vehicle: saline): 130 % of control
- T/C (T/C endpoint: mean survival time, dose: 128.0 mg/kg/injection, schedule: Q04DX003 (ip), vehicle: saline): 131 % of control
- survivor count (T/C endpoint: mean survival time, dose: 150.0 mg/kg/injection, schedule: Q01DX009 (ip), vehicle: alkali diluted with saline): 7 of 8 and 8 of 8
- T/C (T/C endpoint: mean survival time, dose: 200.0 mg/kg/injection, schedule: Q04DX003 (ip), vehicle: alkali diluted with saline): 120, 132, 144 [7 of 8 alive], 153 [7 of 8 alive], 158, 160 % of control
- T/C (T/C endpoint: mean survival time, dose: 225.0 mg/kg/injection, schedule: Q04DX003 (ip), vehicle: alkali diluted with saline): 144 % of control
- survivor count (T/C endpoint: mean survival time, dose: 256.0 mg/kg/injection, schedule: Q01DX009 (ip), vehicle: saline): 9 of 10
- survivor count (T/C endpoint: mean survival time, dose: 256.0 mg/kg/injection, schedule: Q01DX009 (oral), vehicle: saline): 10 of 10
- survivor count (T/C endpoint: mean survival time, dose: 256.0 mg/kg/injection, schedule: Q01DX009 (sc), vehicle: saline): 10 of 10
- survivor count (T/C endpoint: mean survival time, dose: 256.0 mg/kg/injection, schedule: Q03HX008 (ip), vehicle: saline): 6 of 10
- survivor count (T/C endpoint: mean survival time, dose: 256.0 mg/kg/injection, schedule: Q03HX016 (ip), vehicle: saline): 4 of 10
- survivor count (T/C endpoint: mean survival time, dose: 256.0 mg/kg/injection, schedule: Q03HX024 (ip), vehicle: saline): 6 of 10
- T/C (T/C endpoint: mean survival time, dose: 256.0 mg/kg/injection, schedule: Q08DX002 (ip), vehicle: saline): 131 % of control
- T/C (T/C endpoint: mean survival time, dose: 400.0 mg/kg/injection, schedule: Q04DX003 (ip), vehicle: alkali diluted with saline): 116, 151, 167, 182, 188, 196 % of control
- T/C (T/C endpoint: mean survival time, dose: 512.0 mg/kg/injection, schedule: Q01DX001 (ip), vehicle: saline): 129 % of control
- survivor count (T/C endpoint: mean survival time, dose: 512.0 mg/kg/injection, schedule: Q01DX009 (ip), vehicle: saline): 0 of 10
- survivor count (T/C endpoint: mean survival time, dose: 512.0 mg/kg/injection, schedule: Q01DX009 (oral), vehicle: saline): 6 of 10
- survivor count (T/C endpoint: mean survival time, dose: 512.0 mg/kg/injection, schedule: Q01DX009 (sc), vehicle: saline): 5 of 10
- T/C (T/C endpoint: mean survival time, dose: 512.0 mg/kg/injection, schedule: Q04DX003 (oral), vehicle: saline): 137 % of control [9 of 10 alive]
- T/C (T/C endpoint: mean survival time, dose: 512.0 mg/kg/injection, schedule: Q08DX002 (ip), vehicle: saline): 143 % of control
- T/C (T/C endpoint: mean survival time, dose: 800.0 mg/kg/injection, schedule: Q04DX003 (ip), vehicle: alkali diluted with saline): 113, 134, 181, 235 % of control [5 of 6 alive]
- T/C (T/C endpoint: mean survival time, dose: 1024.0 mg/kg/injection, schedule: Q01DX001 (ip), vehicle: saline): 129 % of control
- survivor count (T/C endpoint: mean survival time, dose: 1024.0 mg/kg/injection, schedule: Q01DX009 (oral), vehicle: saline): 0 of 10
- survivor count (T/C endpoint: mean survival time, dose: 2048.0 mg/kg/injection, schedule: Q01DX001 (ip), vehicle: saline): 0 of 10
- survivor count (T/C endpoint: mean survival time, dose: 2048.0 mg/kg/injection, schedule: Q01DX009 (oral), vehicle: saline): 0 of 10
- survivor count (T/C endpoint: mean survival time, dose: 2048.0 mg/kg/injection, schedule: Q04DX003 (ip), vehicle: saline): 0 of 10
- survivor count (T/C endpoint: mean survival time, dose: 2048.0 mg/kg/injection, schedule: Q04DX003 (oral), vehicle: saline): 2 of 10
- survivor count (T/C endpoint: mean survival time, dose: 2048.0 mg/kg/injection, schedule: Q04DX003 (sc), vehicle: saline): 2 of 10
- survivor count (T/C endpoint: mean survival time, dose: 2048.0 mg/kg/injection, schedule: Q08DX002 (ip), vehicle: saline): 0 of 10
- T/C (T/C endpoint: median survival time, dose: 19.4 mg/kg/injection, schedule: Q01DX009 (ip), vehicle: alkali diluted with saline): 129 % of control
- T/C (T/C endpoint: median survival time, dose: 31.3 mg/kg/injection, schedule: Q01DX009 (ip), vehicle: water): 133 % of control
- T/C (T/C endpoint: median survival time, dose: 32.4 mg/kg/injection, schedule: Q01DX009 (ip), vehicle: alkali diluted with saline): 134 % of control
- T/C (T/C endpoint: median survival time, dose: 45.0 mg/kg/injection, schedule: Q01DX009 (ip), vehicle: alkali diluted with saline): 137 % of control
- T/C (T/C endpoint: median survival time, dose: 54.0 mg/kg/injection, schedule: Q01DX009 (ip), vehicle: alkali diluted with saline): 136 % of control
- T/C (T/C endpoint: median survival time, dose: 60.0 mg/kg/injection, schedule: Q01DX009 (ip), vehicle: alkali diluted with saline): 140 % of control
- T/C (T/C endpoint: median survival time, dose: 62.5 mg/kg/injection, schedule: Q01DX009 (ip), vehicle: water): 133 % of control
- T/C (T/C endpoint: median survival time, dose: 62.5 mg/kg/injection, schedule: Q04DX003 (ip), vehicle: water): 133 % of control
- T/C (T/C endpoint: median survival time, dose: 75.0 mg/kg/injection, schedule: Q01DX009 (ip), vehicle: alkali diluted with saline): 145 % of control
- T/C (T/C endpoint: median survival time, dose: 97.2 mg/kg/injection, schedule: Q04DX003 (ip), vehicle: alkali diluted with saline): 132 % of control
- T/C (T/C endpoint: median survival time, dose: 100.0 mg/kg/injection, schedule: Q01DX009 (ip), vehicle: alkali diluted with saline): 129 % of control
- survivor count (T/C endpoint: median survival time, dose: 125.0 mg/kg/injection, schedule: Q01DX009 (ip), vehicle: water): 10 of 10
- T/C (T/C endpoint: median survival time, dose: 125.0 mg/kg/injection, schedule: Q04DX003 (ip), vehicle: water): 144 % of control
- T/C (T/C endpoint: median survival time, dose: 150.0 mg/kg/injection, schedule: Q01DX009 (ip), vehicle: alkali diluted with saline): 134 % of control
- survivor count (T/C endpoint: median survival time, dose: 250.0 mg/kg/injection, schedule: Q01DX009 (ip), vehicle: water): 8 of 10 and 9 of 10
- survivor count (T/C endpoint: median survival time, dose: 500.0 mg/kg/injection, schedule: Q01DX009 (ip), vehicle: water): 3 of 10 and 7 of 10
- T/C (T/C endpoint: median survival time, dose: 500.0 mg/kg/injection, schedule: Q04DX003 (ip), vehicle: water): 127 % of control
- survivor count (T/C endpoint: median survival time, dose: 1000.0 mg/kg/injection, schedule: Q01DX009 (ip), vehicle: water): 0 of 10 and 3 of 10
- T/C [2]: 133 % of control
- survivor count [2]: 1 of 10
